Reference: paper PMC10163288
The other results are listed elsewhere or left out.

B1: il2ra_site1_1z92_normal_mot_203a44625a3a2ba431098544127a80a6_0001_af2_000000214_0001_15_33_H_._HHH_b1_01554_af2_0001_0000300017_0000001_0_af2pred_0001_af2pred_1 (protein)
chain: SSSSSSERFARHVVEILVKLAHLSEEQEEELRELAEELVKRGYSDREIAQILNKLAAELESSSSS
B2: il2ra_site2_3nfp_normal_mot_HHH_b1_04032_000000208_0001_43_56_H_._7ecccec7bd2d3ab74121640ad5a1fb94_0001_0001_0000600018_0000001_0 (protein)
chain: DAEFIILAAESAHKSPLARKLLEAHIEVLKQHNPERAELVQEVLELIEEGNPERAKEVAEEVEKR
B3: il2ra_site2_3nfp_normal_mot_HHH_b1_07447_af2_000000181_0001_1_21_H_._HHH_b2_03168_0001_0000100005_0000001_0 (protein)
chain: SSSSDQLELAVEFVAAAARLRGNPELAEELERLIEEYKQEGDPRIKREIIELLDEAFQLLQSSSS
B4: il2ra_site1_3nfp_sap_7_mot_d8099cd8ef6a59b9c03de2010570d688_0001_af2_000000259_0001_37_51_H_._HHH_b1_03897_0001_0000200003_0000001_0_0001_af2pred_dldesign_0_af2 … (protein)
chain: RERIKRAVRAAKKKKSPALLQYALDLLYEHTKDPEVKEVKAEFEKLYHVDPEAAMKLALDYLEKL
B5: il2ra_site2_3nfp_sap_29_mot_HHH_b1_06431_000000233_0001_39_56_H_._0e529dd47276c7fc43eae82927e5780b_0001_0001_0000100001_0000001_0_0001 (protein)
chain: SSSSSSEEEEVRELIEEAEETSKRDPEKARRILRRAALIAAEIRNHELFAEINELLEKLVSSSSS
B6: il2ra_site1_2b5i_normal_mot_HHH_b1_00095_000000042_0001_1_14_H_._HHH_b1_03323_0001_0000400015_0000001_0_af2pred_dldesign_0_af2pred (protein)
chain: SSSSGPRLEALKELERILKELEELKDEEAYEKAEELAEEFLRTQDLRYLEEARKLLEEAKSSSSS
B7: il2ra_site1_3nfp_sap_15_mot_HHH_b1_04144_000000286_0001_1_18_H_._cbfbdadfdfee4acf7bbafee7633b20e7_0001_1_af2_0001_0000900054_0000001_0_0001_af2pred_0001_af2pred … (protein)
chain: SAAEIYLERAVKLNSERALRKFIEDLLRYFGNPEEVEEFLEKLVKELGLPPEVLERLQELLEELT
B8: il2ra_site2_2erj_normal_mot_HHH_b1_02968_000000142_0001_22_39_H_._HHH_b2_08255_0001_0000300010_0000001_0 (protein)
chain: SSSSSSSAEEEIEELLERAEQISDLREVYKLAVEALRLASEARDPRLQELIREVLKRLSSSSSSS
B9: il2ra_site1_2b5i_sap_9_mot_HHH_b2_03607_af2_000000052_0001_1_19_H_._HHH_b2_04098_af2_0001_0000400034_0000001_0_0001_af2pred_0001_af2pred_1 (protein)
chain: SSSSDRFERVLELWREASKLFREGNPEEAREVLEEALELAEQAGDERARKDVEFLLEFLKSSSSS
B10: il2ra_site2_2erj_sap_31_mot_HHH_b1_07829_000000169_0001_1_18_H_._HHH_b1_01129_af2_0001_0000100004_0000001_0_0001_af2pred_0001_1_af2pred_swapped (protein)
chain: SSSSSDEEIRERVEELLEEAERIKDPKEALKLLQEAAQLALELDDPELIELVLEVARRASSSSSS
B11: il2ra_site1_2b5i_normal_mot_HHH_b1_02271_000000068_0001_1_16_H_._HHH_b1_08003_0001_0001400040_0000001_0_af2pred_dldesign_0_af2pred (protein)
chain: SSSSSDRRARLEAALAEAERLAAAGKRREALKRLDELKKEADELDDDELADRIEALAKEISSSSS
B12: il2ra_site2_2erj_normal_mot_HHH_b2_05722_000000033_0001_22_38_H_._HHH_b2_06475_0001_0000200014_0000001_0_af2pred_0001_af2pred (protein)
chain: SSSSSEAEELFEEAEELVKRGDYEEAALVALLALEAAREEGDEELERKIQELLEELARVLFSSSS
B13: il2ra_site2_2erj_sap_20_mot_HHH_b2_07014_af2_000000149_0001_41_55_H_._HHH_b1_01587_af2_0001_0000100009_0000001_1_0001 (protein)
chain: SSSSDELERLYELAVRILHLLSNGDPEEARELIEEAQELAERLQSENAREILERLEEEARSSSSS
B14: il2ra_site1_3nfp_normal_mot_HHH_b1_03753_af2_000000088_0001_41_54_H_._HHH_b2_08116_af2_0001_0000300023_0000001_0_af2pred_0001_af2pred (protein)
chain: SSSSSDVRKEAVEILRRALELARQGDHEEAEKLLEEALELAKEGNNEQLQRKIEHDLKSASSSSS
B15: il2ra_site1_1z92_normal_mot_3d621733409fa4d2bc95fa1761ba6d8e_0001_af2_000000005_0001_1_12_H_._HHH_b1_00507_af2_0001_0000200017_0000001_0_af2pred_0001_af2pred_1 (protein)
chain: SSSSNAWERTLELAEEALKLIDDPELRREAEELIEELEEALRRGDTKRARELLEEINKILSSSSS
B16: il2ra_site1_1z92_normal_mot_HHH_b1_01245_000000029_0001_23_39_H_._HHH_b2_03879_0001_0000200020_0000001_0 (protein)
chain: SSSSDLELLREADRIVLELVEEFGLSDEQARELARLAIRLAARGVSPEEIEEILRRLAEELSSSS
B17: il2ra_site2_2erj_sap_31_mot_HHH_b1_03572_af2_000000146_0001_41_56_H_._HHH_b1_02912_af2_0001_0000200004_0000001_0_0001 (protein)
chain: SSSSSDKELWERVAELLAEAAHIDDEEEARRVVEEAERLAEENNDETLLRYVEMVLEHLKSSSSS
B18: il2ra_site1_2b5i_normal_mot_22370d59370c406a0c205a431f537cfa_0001_af2_000000141_0001_1_31_H_._HHH_b2_04268_af2_0001_0000600026_0000001_0_af2pred_dldesign_0_af2p … (protein)
chain: SSSSSKEDEKEVSDVIFELVEELGLSDDQYATLSRLAVELLYKGVSVEEIKKRLRELALKLSSSS
B19: il2ra_site1_3nfp_normal_mot_HHH_b1_03125_af2_000000134_0001_40_57_H_._3e5e4a15067cbc373d7c33478bca156f_0001_af2_0001_0000600046_0000001_0 (protein)
chain: NSERFLEDLERSGDPLLEQIAEVLKEAKERGDFEVVQEIFKLIRKLLKGELPPEEVLRLVEELLK

target: il2ra, P01589; assay: yeast display titration

Apparent Kd, inactive:
B1 no binding seen
B2 no binding seen
B3 no binding seen
B4 no binding seen
B5 no binding seen
B6 no binding seen
B7 no binding seen
B8 no binding seen
B9 no binding seen
B10 no binding seen
B11 no binding seen
B12 no binding seen
B13 no binding seen
B14 no binding seen
B15 no binding seen
B16 no binding seen
B17 no binding seen
B18 no binding seen
B19 no binding seen

Quoted from the entries so far (two entries):
Apparent Kd, inactive:
B4 no binding seen
B5 no binding seen
